# The supplement of paper PMC9135407
# Values joined by “and” are separate entries in the source; they are usually repeats but may differ in a detail not shown here. Identical values can stand only once. Counter-ions that a name gives are not always drawn. ± gives the standard deviation of the averaged measurements. Some of the results follow. Plates or batches differ in their baseline, so values are only roughly comparable.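 Assay uses culture-activated primary human stellate myofibroblasts; lipid droplet recovery indicates inactivation. Measured: proportion of Hoechst-counted cells over a plate-specific Bodipy cutoff, duplicate wells, DMSO and nortriptyline as per-plate negative and positive controls. A hit scores, control-normalized, above the plate's top-tenth-percentile nortriptyline wells or ranks among its three best wells. Final well concentrations not reported.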
# System: primary human hepatic stellate cells (donor 1)
# Assay: percent Bodipy-positive cells; higher = more lipid droplet accumulation
# Conditions: 48 h
# [1] = library stock concentration: 3.33 mM
# [2] = library stock concentration: 10 mM
# [3] = library stock concentration: 80 uM
# [4] = library stock concentration: 400 uM
# [5] = library stock concentration: 2 mM
# [6] = library stock concentration: 1 mM
structure (smiles),measurement,setting,value
CCC(=O)Nc1ccc2ncnc(Nc3cccc(Br)c3)c2c1,percent Bodipy-positive cells,[1],10.9 ± 0.12%
Cc1coc2c1C(=O)C(=O)c1c-2ccc2c(C)cccc12 [Tanshinone I],percent Bodipy-positive cells,[1],8.44 ± 0.81%
same,percent Bodipy-positive cells,[2],29.5 ± 11%
C[C@@]12C[C@@]3(O)O[C@@H](O1)[C@]1(COC(=O)c4ccccc4)[C@H]3C[C@@]12O[C@@H]1O[C@H](CO)[C@@H](O)[C@H](O)[C@H]1O [Paeoniflorin],percent Bodipy-positive cells,[1],16.9 ± 14%
same,percent Bodipy-positive cells,[2],10.1 ± 0.79%
COc1cc(Nc2nc3ccccc3nc2NS(=O)(=O)c2ccc(NC(=O)c3ccc(C)c(OC)c3)cc2)cc(OC)c1,percent Bodipy-positive cells,[1],11.9 ± 5.6%
same,percent Bodipy-positive cells,[2],28 ± 3.9%
COc1cc(Nc2nc3ccccc3nc2NS(=O)(=O)c2ccc(NC(=O)c3ccc(C)c(OC)c3)cc2)cc(OC)c1 [pseudoXL765],percent Bodipy-positive cells,[3],11.8 ± 2.2%
same,percent Bodipy-positive cells,[4],12.8 ± 7.7%
same,percent Bodipy-positive cells,[5],19.6 ± 7.9%
same,percent Bodipy-positive cells,[2],41.8 ± 15%
Cc1ccccc1-n1c(Cn2nc(-c3cccc(O)c3)c3c(N)ncnc32)nc2cccc(C)c2c1=O,percent Bodipy-positive cells,[4],11.9 ± 2.6%
same,percent Bodipy-positive cells,[5],17 ± 8.4%
same,percent Bodipy-positive cells,[1],6.27 ± 1.1%
same,percent Bodipy-positive cells,[2],15.2% and 21.6%
CCC1=C(C)CN(C(=O)NCCc2ccc(S(=O)(=O)NC(=O)N[C@H]3CC[C@H](C)CC3)cc2)C1=O [Glimepiride],percent Bodipy-positive cells,,10.91 ± 0.029%
same,percent Bodipy-positive cells,[1],7.07 ± 1.6%
same,percent Bodipy-positive cells,[2],9.75% and 5.7%
CCC1=C(C)CN(C(=O)NCCc2ccc(S(=O)(=O)NC(=O)N[C@H]3CC[C@H](C)CC3)cc2)C1=O,percent Bodipy-positive cells,[2],13 ± 5.8%
O=C1CCc2cc(OCCCCc3nnnn3C3CCCCC3)ccc2N1 [Cilostazol],percent Bodipy-positive cells,,29.8 ± 7%
same,percent Bodipy-positive cells,[1],9.85 ± 4.9%
same,percent Bodipy-positive cells,library stock concentration: 5.4 mM,12.8 ± 7.3%
N#C[C@@H]1C[C@@H]2C[C@@H]2N1C(=O)[C@@H](N)C12CC3CC(CC(O)(C3)C1)C2 [Saxagliptin],percent Bodipy-positive cells,[1],7.351 ± 0.03%
same,percent Bodipy-positive cells,[2],15.9 ± 6.2%
N#C[C@@H]1C[C@@H]2C[C@@H]2N1C(=O)[C@@H](N)C12CC3CC(CC(O)(C3)C1)C2,percent Bodipy-positive cells,[2],19.5 ± 6.1%
CCS(=O)(=O)CCn1c([N+](=O)[O-])cnc1C,percent Bodipy-positive cells,[2],8.84 ± 2.6%
CCS(=O)(=O)CCn1c([N+](=O)[O-])cnc1C [Tinidazole],percent Bodipy-positive cells,,11.5 ± 0.94%
same,percent Bodipy-positive cells,[1],8.82 ± 3.5%
same,percent Bodipy-positive cells,library stock concentration: 8.1 mM,8.03% and 20.6%
same,percent Bodipy-positive cells,[2],34% and 33.5%
CC[C@H]1OC(=O)[C@H](C)C(=O)[C@H](C)[C@@H](O[C@@H]2O[C@H](C)C[C@H](N(C)C)[C@H]2O)[C@](C)(OC)C[C@@H](C)C(=O)[C@H](C)[C@H]2N(CCCCn3cnc(-c4cccnc4)c3)C(=O)O[C@]12C [Telithromycin],percent Bodipy-positive cells,[2],40.3 ± 12%
CC[C@H]1OC(=O)[C@H](C)C(=O)[C@H](C)[C@@H](O[C@@H]2O[C@H](C)C[C@H](N(C)C)[C@H]2O)[C@](C)(OC)C[C@@H](C)C(=O)[C@H](C)[C@H]2N(CCCCn3cnc(-c4cccnc4)c3)C(=O)O[C@]12C,percent Bodipy-positive cells,[2],49.4 ± 11%
CCCCOc1cc(C(=O)NCCN(CC)CC)c2ccccc2n1 [Dibucaine HCl],percent Bodipy-positive cells,[1],29.8 ± 2%
CCCCOc1cc(C(=O)NCCN(CC)CC)c2ccccc2n1 [Dibucaine],percent Bodipy-positive cells,,57.2 ± 8.4%
CCCCOc1cc(C(=O)NCCN(CC)CC)c2ccccc2n1 [Dibucaine hydrochloride],percent Bodipy-positive cells,library stock concentration: 5.3 mM,46.9 ± 10%
same,percent Bodipy-positive cells,[2],21.8 ± 1.8%
Oc1ccc(-c2nc3cc(O)cc(Br)c3o2)cc1,percent Bodipy-positive cells,[2],9.63 ± 1.5%
O=P(O)(O)C(Cl)(Cl)P(=O)(O)O [Clodronic acid],percent Bodipy-positive cells,[2],38.1 ± 1%
O=C(O)CCC(=O)N1CCC[C@H]1C(=O)O [N-Succinyl-L-proline],percent Bodipy-positive cells,[2],10.4 ± 0.9%
N=C(N)NC(=O)c1nc(Cl)c(N)nc1N [Amiloride hydrochloride],percent Bodipy-positive cells,library stock concentration: 7.5 mM,2.79 ± 1.5%
N=C(N)NC(=O)c1nc(Cl)c(N)nc1N,percent Bodipy-positive cells,library stock concentration: 18.8 mM,18 ± 10%
N=C(N)NC(=O)c1nc(Cl)c(N)nc1N [Amiloride HCl],percent Bodipy-positive cells,[1],10.3 ± 3.5%
same,percent Bodipy-positive cells,[2],11.8 ± 1%
N=C(N)NC(=O)c1nc(Cl)c(N)nc1N [Amiloride hydrochloride dihydrate],percent Bodipy-positive cells,,26.3 ± 3%
N=C(N)NC(=O)c1nc(Cl)c(N)nc1N [Amiloride],percent Bodipy-positive cells,library stock concentration: 8.7 mM,6.94 ± 1%
CC(C)[C@H](O)C(=O)O [(S)-(+)-2-hydroxy-3-Methylbutyric Acid],percent Bodipy-positive cells,[6],31.5 ± 35%
O=C(O)CCC/C=C\C[C@@H]1[C@@H](/C=C/[C@@H](O)COc2cccc(C(F)(F)F)c2)[C@H](O)C[C@@H]1O [Fluprostenol],percent Bodipy-positive cells,[6],22.7% and 6.8%
COC(=O)[C@H]1[C@H]2C[C@@H]3c4[nH]c5cc(OC)ccc5c4CCN3C[C@H]2C[C@@H](OC(=O)c2cc(OC)c(OC)c(OC)c2)[C@@H]1OC [Reserpine],percent Bodipy-positive cells,[2],82.8 ± 8.7%
CN(C)C(=O)COC(=O)Cc1ccc(OC(=O)c2ccc(NC(=N)N)cc2)cc1 [Camostat Mesilate],percent Bodipy-positive cells,[1],15.7 ± 3.3%
same,percent Bodipy-positive cells,[2],21.5 ± 8%
COc1ccc(Cc2cnc(N)nc2N)cc1OC,percent Bodipy-positive cells,[2],25.2 ± 4.7%
O=C(c1ccc(C=Cc2n[nH]c3ccccc23)cc1)N1CCNCC1,percent Bodipy-positive cells,[2],98.22 ± 0.91%
O=[N+]([O-])c1cccc2c(Br)[nH]nc12 [3-bromo-7-Nitroindazole],percent Bodipy-positive cells,[6],17.1 ± 18%
CC(Cc1ccccc1)(NC(=O)CN)c1ccccc1 (configuration not stated) [Remacemide hydrochloride],percent Bodipy-positive cells,[2],31.7 ± 0.73%
COc1cc(C)c(Sc2cnc(NC(=O)c3ccc(CNC(C)C(C)C)cc3)s2)cc1C(=O)N1CCN(C(C)=O)CC1 (configuration not stated),percent Bodipy-positive cells,[3],12.2 ± 1.3%
same,percent Bodipy-positive cells,[4],17.7 ± 7.7%
same,percent Bodipy-positive cells,[5],43.8 ± 4.6%
